# Small-molecule microarray binding calls

Source: the ROBIN nucleic acid binder screens (doi:10.1002/anie.202211358).

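Each compound is printed as two spots on a slide made to bind it covalently, so it has no test concentration; the read-out is fluorescence of the bound, labelled oligonucleotide. For the PreQ1, TPP and SAM-II riboswitches the laboratory earlier reported (doi:10.1038/s41467-019-09493-3) 1 µM RNA, 2 h, and a rule that included a mean Z-score above 3 (spot signal-to-noise against the whole library), a score well above that on a control array, and duplicate spots agreeing (coefficient of variation under 100). The data file gives only the calls; its cut-offs may differ, and compounds hitting several targets are kept. The calls come from the array alone, and fixing a compound to the slide can hide its binding.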
“active” means called a hit, “inactive” means screened and not called a hit.
The compounds are a random part of those screened.
A target missing from an entry has no call listed here.

Targets, with sequences 5′ to 3′:
PreQ1: PreQ1 riboswitch RNA pseudoknot, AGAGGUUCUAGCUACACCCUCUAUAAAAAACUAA. From B. subtilis. About 24,000 compounds screened, about 170 hits.
SAM-II: SAM-II riboswitch RNA pseudoknot, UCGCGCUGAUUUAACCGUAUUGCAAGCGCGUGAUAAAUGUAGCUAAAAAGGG. About 21,000 compounds screened, about 200 hits.
TPP: TPP riboswitch RNA three-way junction, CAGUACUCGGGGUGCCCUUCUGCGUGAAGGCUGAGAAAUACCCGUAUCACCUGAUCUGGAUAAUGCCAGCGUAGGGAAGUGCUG. About 24,000 compounds screened, about 160 hits.

- OCCSc1nnc(COc2ccc(Br)cc2)n1Cc1ccccc1 | PreQ1: inactive; TPP: inactive
- Cc1cccc(CN2CCC(n3cc(CCO)nn3)CC2)c1C | PreQ1: inactive; SAM-II: inactive; TPP: inactive
- CSCC[C@@H](NC(=O)[C@@H](Cc1ccccc1)NC(=O)CNC(=O)CNC(=O)[C@@H](N)Cc1ccc(O)cc1)C(=O)O | PreQ1: inactive; SAM-II: inactive; TPP: inactive
- O=C(NCC1CCOc2ccccc2C1)c1ccc2c(c1)ncn2CCO (stereo unspecified) | PreQ1: inactive; SAM-II: inactive; TPP: inactive
- CCOC(=O)c1cnc2c(C#N)cnn2c1N | PreQ1: inactive; SAM-II: inactive; TPP: inactive
- Nc1c(C(=O)Nc2ccccc2C(=O)c2ccccc2)sc2ncccc12 | PreQ1: inactive; SAM-II: inactive; TPP: inactive
- Nc1cccc(C(=O)Nc2cc(O)n(-c3c(Cl)cc(Cl)cc3Cl)n2)c1 | PreQ1: inactive; SAM-II: inactive; TPP: inactive
- COC(=O)c1c(-c2cc(C)ccc2C)csc1N | PreQ1: inactive; SAM-II: inactive; TPP: inactive
- CSc1nc(-c2ccccc2Cl)nc2c1Cc1c(CO)cnc(C)c1O2 | PreQ1: inactive; TPP: inactive
- CC(C)(CN1CC[C@@H](c2ccc3ccccc3c2)[C@H](O)C1)N1CCOCC1 | PreQ1: inactive; SAM-II: inactive; TPP: inactive
- CCOC(=O)c1ccccc1NC(=O)N1CCC2(CC1)NCCNC2=O | PreQ1: inactive; SAM-II: inactive; TPP: inactive
- O=C1OCCN1CCn1ccnc1-c1cc2n(n1)CCNC2 | PreQ1: inactive; SAM-II: inactive; TPP: inactive
- CC(C)n1cc(C(=O)NCC(O)CN2CCNCC2)cn1 (stereo unspecified) | PreQ1: inactive; SAM-II: inactive; TPP: inactive
- Cc1ccc(COc2ccc(CNC(C)C)cc2)cc1.Cl | PreQ1: inactive; SAM-II: inactive; TPP: inactive
- Cn1cc(CNC(=O)c2cccc(S(=O)(=O)N3CCCNCC3)c2)cn1 | PreQ1: inactive; SAM-II: inactive; TPP: inactive
- CCCCNc1nc(N(C)C)nc(-n2cnc(SCc3ccccc3)n2)n1 | PreQ1: inactive; TPP: inactive
- CC(=O)c1ccc(OCC(O)CN2C(C)CCCC2C)cc1 (stereo unspecified) | PreQ1: inactive; SAM-II: inactive; TPP: inactive
- COC(=O)c1cc2n(n1)CCCN(C(=O)c1ccc(N)nc1)C2 | PreQ1: inactive; SAM-II: inactive; TPP: inactive
- OCC1(O)CCN(Cc2noc(-c3ccccc3)n2)CC1 | PreQ1: inactive; SAM-II: inactive; TPP: inactive
- Cc1nc(C2CCNCC2)cc(N(C)Cc2ccsc2)n1 | PreQ1: inactive; SAM-II: inactive; TPP: inactive

The first 2 entries again:

- OCCSc1nnc(COc2ccc(Br)cc2)n1Cc1ccccc1 | PreQ1: inactive; TPP: inactive
- Cc1cccc(CN2CCC(n3cc(CCO)nn3)CC2)c1C | PreQ1: inactive; SAM-II: inactive; TPP: inactive